# Assay results

From PubChem BioAssay record AID1159506 (NCATS, 2015).

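Genome-wide siRNA knockdown in TC32 Ewing sarcoma cells, comparing luciferase light from an NR0B1-promoter reporter with a CMV-promoter reporter 48 hours after transfection. Each siRNA was applied at 20 nM. A z-score of the log NR0B1-over-CMV signal, less the median of siRNAs with the same seed; more negative means a stronger specific loss of the NR0B1 reporter.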

The strongest results of the screen are mostly left out here. Sequences are the guide (antisense) strand, without overhang.

{"sequence": "UUCCAUGUCAGACUUGAUC", "gene": "DNAJC5B", "seed-corrected z-score": "-0.6495"}
{"sequence": "UUGAGAUAGACUGAGGUCC", "gene": "DTWD1", "seed-corrected z-score": "-0.6758"}
{"sequence": "AGAAUAUCAAUCUUCAGAG", "gene": "IFI16", "seed-corrected z-score": "0.09418"}
{"sequence": "UCGUUUGAAGUUUUCAUCC", "gene": "OPRM1", "seed-corrected z-score": "0.3991"}
{"sequence": "UCAAUGUACUCGUUCAUCG", "gene": "GRIA2", "seed-corrected z-score": "0.1918"}
{"sequence": "UAGGCUGUGAUCUAGGCAC", "gene": "IGLL3P", "seed-corrected z-score": "-0.4306"}
{"sequence": "UUGGGAGGCACACUAAGGC", "gene": "APLN", "seed-corrected z-score": "0.1749"}
{"sequence": "UUCGUUACCACAUCUCGCA", "gene": "TRAP1", "seed-corrected z-score": "-0.4229"}
{"sequence": "UAUCGGGCUUCUGUAAGGG", "gene": "KIF21A", "seed-corrected z-score": "-0.0874"}
{"sequence": "UAUGUAACGAGGUCUAUAU", "gene": "NKAIN2", "seed-corrected z-score": "-0.9616"}
{"sequence": "UAUCUGAUAGCACUCAUGC", "gene": "PIPOX", "seed-corrected z-score": "-0.1402"}
{"sequence": "AUCUUCUCCACAGUUGCGG", "gene": "MAD2L1BP", "seed-corrected z-score": "0.8187"}
{"sequence": "UUCCAUUCUGGUUUUCUUG", "gene": "SERPING1", "seed-corrected z-score": "1.015"}
{"sequence": "UUCAAUUAUAACGACCUUC", "gene": "CXorf65", "seed-corrected z-score": "1.487"}
{"sequence": "UUUCUUUCUAUCUCCACAC", "gene": "RGAG4", "seed-corrected z-score": "-0.8435"}
{"sequence": "UUUGGUUUUGCGCUUGGUC", "gene": "HOMEZ", "seed-corrected z-score": "0.1142"}
{"sequence": "AACGAUUCCGGAAAUUUCC", "gene": "C2CD5", "seed-corrected z-score": "0.6476"}
{"sequence": "UGCUCAAAGGUGAUGGUCC", "gene": "TPPP", "seed-corrected z-score": "0.7493"}
{"sequence": "UGUCUGCACAGGCACCUUC", "gene": "PRSS22", "seed-corrected z-score": "0.07466"}
{"sequence": "AAUCUUCCUUCGAAUGUGG", "gene": "RPL26", "seed-corrected z-score": "2.025"}
{"sequence": "UCAAUAUCCAUCCAUAGCC", "gene": "RGS22", "seed-corrected z-score": "-0.466"}
{"sequence": "UUUGUUGGGACUCUAAGAG", "gene": "GRAMD1B", "seed-corrected z-score": "-1.902"}
{"sequence": "AAAUCUUGAUCUGUCUUUC", "gene": "HOXB7", "seed-corrected z-score": "-0.8031"}
{"sequence": "UCUUGUCCAUAUACCAUCC", "gene": "ALG9", "seed-corrected z-score": "-0.3289"}
{"sequence": "UCAUGGUAAAUGAUCCGCC", "gene": "PHIP", "seed-corrected z-score": "1.393"}
{"sequence": "UUUGUGCACAUAAGGAUCC", "gene": "ACE2", "seed-corrected z-score": "-0.199"}
{"sequence": "UCUGUGACUUCUAAUGUCC", "gene": "C9orf47", "seed-corrected z-score": "-0.2006"}
{"sequence": "AUAGUUUUAACUCAAUCCC", "gene": "SOX7", "seed-corrected z-score": "0.8762"}
{"sequence": "AAAAACUAUGUAAGUAUCU", "gene": "NACA", "seed-corrected z-score": "0.1813"}
{"sequence": "UCAGAAGCUUCCGUUUUGC", "gene": "KNOP1", "seed-corrected z-score": "-0.3513"}
{"sequence": "UACCGGCAAGUUGACAAUC", "gene": "NFE2", "seed-corrected z-score": "-0.2518"}

The first 4 entries again:

{"sequence": "UUCCAUGUCAGACUUGAUC", "gene": "DNAJC5B", "seed-corrected z-score": "-0.6495"}
{"sequence": "UUGAGAUAGACUGAGGUCC", "gene": "DTWD1", "seed-corrected z-score": "-0.6758"}
{"sequence": "AGAAUAUCAAUCUUCAGAG", "gene": "IFI16", "seed-corrected z-score": "0.09418"}
{"sequence": "UCGUUUGAAGUUUUCAUCC", "gene": "OPRM1", "seed-corrected z-score": "0.3991"}